According to PMC11933467:
Results are given in words; binding and its absence hold for the method and conditions named. Binding seen in cells or lysates may run through a third protein. For part of these data: Binding can be weak; no strength is given. For part of these data: Tags and fused reporters may be left off the sequences shown. Each block holds one molecule with its values, some of them ahead of it.

Protein sequences, listed by entry. Tags and fused reporters are not part of them. Lines headed by an entry give the natural chain unless they say otherwise; changes in a name come on top.
UniProt Q9VWS1: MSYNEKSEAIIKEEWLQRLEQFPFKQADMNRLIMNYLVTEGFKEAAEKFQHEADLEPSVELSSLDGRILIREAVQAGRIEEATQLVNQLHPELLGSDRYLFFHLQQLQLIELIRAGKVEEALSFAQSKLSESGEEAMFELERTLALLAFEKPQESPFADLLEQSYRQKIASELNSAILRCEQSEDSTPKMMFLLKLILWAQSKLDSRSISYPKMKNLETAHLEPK

Legend:
[1] = target: T1, ME31B-GFP (Drosophila melanogaster) (UniProt P23128); assay: co-IP; anti-GFP immunoprecipitation of ME31B-GFP from stage 14 oocyte lysate; western blot for Muskelin
T1 sequence: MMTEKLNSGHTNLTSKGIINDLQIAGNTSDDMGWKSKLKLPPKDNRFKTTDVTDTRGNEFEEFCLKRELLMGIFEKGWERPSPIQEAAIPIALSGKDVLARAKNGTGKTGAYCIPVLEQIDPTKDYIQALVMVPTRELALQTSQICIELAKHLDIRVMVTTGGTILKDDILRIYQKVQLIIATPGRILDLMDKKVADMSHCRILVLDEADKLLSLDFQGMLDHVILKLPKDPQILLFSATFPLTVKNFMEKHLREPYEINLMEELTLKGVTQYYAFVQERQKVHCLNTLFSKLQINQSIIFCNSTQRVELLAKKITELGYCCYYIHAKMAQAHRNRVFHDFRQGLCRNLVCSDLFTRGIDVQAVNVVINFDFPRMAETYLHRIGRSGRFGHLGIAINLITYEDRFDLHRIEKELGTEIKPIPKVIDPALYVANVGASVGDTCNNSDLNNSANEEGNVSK

[2] = target: T2, ME31B (Drosophila melanogaster (endogenous in embryos)) (UniProt P23128); assay: cross-linking; 0-1 h w1118 embryo lysate cross-linked with 0.2 mM DTSP, denatured, anti-ME31B immunoprecipitation with denaturing washes, crosslink reversed; western blot and mass spectrometry (against IgG)
T2 sequence: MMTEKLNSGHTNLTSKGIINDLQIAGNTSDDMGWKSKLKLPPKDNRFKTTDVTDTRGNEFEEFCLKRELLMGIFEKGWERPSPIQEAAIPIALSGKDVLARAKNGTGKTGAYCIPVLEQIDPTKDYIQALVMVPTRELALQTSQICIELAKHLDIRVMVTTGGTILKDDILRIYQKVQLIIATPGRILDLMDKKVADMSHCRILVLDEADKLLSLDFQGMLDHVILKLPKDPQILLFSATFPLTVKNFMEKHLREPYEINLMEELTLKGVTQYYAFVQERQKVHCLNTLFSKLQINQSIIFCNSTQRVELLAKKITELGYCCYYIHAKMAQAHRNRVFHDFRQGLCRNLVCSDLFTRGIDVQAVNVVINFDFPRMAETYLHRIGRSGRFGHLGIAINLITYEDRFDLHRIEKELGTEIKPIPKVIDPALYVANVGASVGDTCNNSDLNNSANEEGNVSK

[3] = target: T2, ME31B (Drosophila melanogaster (endogenous in embryos)); assay: condition: only DMSO instead of DTSP (no cross-linker), denaturing conditions; co-IP; 0-1 h w1118 embryo lysate treated with DMSO (no cross-linker), denatured, anti-ME31B immunoprecipitation with denaturing washes; western blot
[4] = target: Muskelin (Drosophila melanogaster (endogenous in embryos and oocytes)); assay: condition: only 4-5 h control embryos (end of the MZT); co-IP; anti-Muskelin immunoprecipitation from 4-5 h control (mCherry knockdown) embryo lysate, end of the MZT; lysis buffer A washes; western blot
[5] = target: Muskelin (Drosophila melanogaster (endogenous in embryos and oocytes)); assay: co-IP; anti-Muskelin immunoprecipitation on protein G beads from staged embryo lysates (0-1 h control mCherry, RanBPM or Kdo knockdown; Kdo knockdown also at 4-5 h); washed 3x with lysis buffer A (150 mM KCl, 20 mM HEPES-KOH pH 7.4, 1 mM MgCl2, 1 mM DTT); western blot
[6] = target: Muskelin (Drosophila melanogaster (endogenous in embryos and oocytes)); assay: condition: only stringent conditions (denaturing wash buffer with 1 M NaCl, 1% NP-40, 0.05% sodium deoxycholate, 0.1% SDS); co-IP; anti-Muskelin immunoprecipitation from 1 to 2 h embryo lysates (control or Kdo knockdown) under stringent conditions: washed 6x with denaturing wash buffer (50 mM Tris pH 8, 1 M NaCl, 1% NP-40, 0.05% sodium deoxycholate, 0.1% SDS); western blot
[7] = target: Muskelin (Drosophila melanogaster (endogenous in embryos and oocytes)); assay: cross-linking; 0-1 h w1118 embryo lysate cross-linked with 0.2 mM DTSP (3 h, 4 °C) or DMSO, denatured, anti-Muskelin immunoprecipitation with denaturing washes, crosslink reversed with DTT, mass spectrometry; DTSP against DMSO
[8] = target: Houki (Drosophila melanogaster (endogenous in embryos)) (UniProt Q9VWS1); assay: co-IP; anti-Houki immunoprecipitation from embryo lysate (w1118); western blot for CTLH complex components and ME31B

- binding [1]: binds
- binding [2]: binds
- binding [3]: no binding
Molecule: Muskelin

- binding [7]: binds
B3: eIF4E (protein, UniProt P48598 1-259)
chain: MQSDFHRMKNFANPKSMFKTSAPSTEQGRPEPPTSAAAPAEAKDVKPKEDPQETGEPAGNTATTTAPAGDDAVRTEHLYKHPLMNVWTLWYLENDRSKSWEDMQNEITSFDTVEDFWSLYNHIKPPSEIKLGSDYSLFKKNIRPMWEDAANKQGGRWVITLNKSSKTDLDNLWLDVLLCLIGEAFDHSDQICGAVINIRGKSNKISIWTADGNNEEAALEIGHKLRDALRLGRNNSLQYQLHKDTMVKQGSNVKSIYTL

- binding [8]: binds
B4: RanBPM (protein, UniProt Q4Z8K6 1-962)
chain: MENVEEAPPLSSESNSNSNNSSASSSSHQLSQSGAMGAEIAPSTSRSHSHSPTPSPPVPASSHDQPHPDHPSPPLNASETEARENSPHDHSPTPTFHQTAPPPTTSSTAPQRDEREQQQQQEAPPLQQDQQENSPAQDQELHPLLDQQNQEYPAVHQDQQAEQNQELHHIEGLIRHRESQNPEEHPPQASLENRETLGREDTNQEPDEPQVRDPEIEPEAEPPPPLLLEDLDEQDSGSQDLNEQQPPLIIDANAIAETIDANAVERIDDYEDDDEEVDEEEEVVEDRVDRAGEVASVSGAQRLHSVAVLPRYSSASRAPRSSNNNNNNISNHNNNNNNSNSNSLSRRTRHFYSNNGSHFSNDMFPSHNPRSSTQTSSPRVGGRRHHSTPAASSNSPQHQGVDPLRLLYPNVNESETPLPRCWSPHDKCLSIGLSQNNLRVTYKGVGKQHSDAASVRTAYPIPSSCGLYYFEVRIISKGRNGYMGIGLTAQQFRMNRLPGWDKQSYGYHGDDGNSFSSSGNGQTYGPTFTTGDVIGCCVNFVNNTCFYTKNGVDLGIAFRDLPTKLYPTVGLQTPGEEVDANFGQEPFKFDKIVDMMKEMRSNVLRKIDRYPHLLETPENLMNRLVSTYLVHNAFSKTAEAFNGYTNQTFNEDLASIKTRQKIIKLILTGKMSQAIEHTLRSFPGLLENNKNLWFALKCRQFIEMINGADIENVNNKVTATTQTMPTNQTSVIQSTKTFKHSKSGSGNGNVNINQTQQQNNTAIPAVIKPQGGDRPDIKNMLVDDNSNKCVEHDSNSMDVEMEPCQSHSNGGDSSSNGNASAVRNSLDAIDEEMDVDVSPSSRNCGRVIEKILEFGKELSSMGQQLEKENLMTEEERQMLEDAFSLIAYSNPWSSPLGWLLCPSRRESVSTTLNSAILESLNFERRPPLEYLVAHASELIKVIGQHSLGEDAFITIDDVFPQN

Second part, the molecule before the results:

B1: ME31B-GFP (protein, UniProt P23128 1-459)
chain: MMTEKLNSGHTNLTSKGIINDLQIAGNTSDDMGWKSKLKLPPKDNRFKTTDVTDTRGNEFEEFCLKRELLMGIFEKGWERPSPIQEAAIPIALSGKDVLARAKNGTGKTGAYCIPVLEQIDPTKDYIQALVMVPTRELALQTSQICIELAKHLDIRVMVTTGGTILKDDILRIYQKVQLIIATPGRILDLMDKKVADMSHCRILVLDEADKLLSLDFQGMLDHVILKLPKDPQILLFSATFPLTVKNFMEKHLREPYEINLMEELTLKGVTQYYAFVQERQKVHCLNTLFSKLQINQSIIFCNSTQRVELLAKKITELGYCCYYIHAKMAQAHRNRVFHDFRQGLCRNLVCSDLFTRGIDVQAVNVVINFDFPRMAETYLHRIGRSGRFGHLGIAINLITYEDRFDLHRIEKELGTEIKPIPKVIDPALYVANVGASVGDTCNNSDLNNSANEEGNVSK
- binding [4]: no binding
- binding [5]: binds
- binding [6]: no binding

B2: ME31B (protein, UniProt P23128 1-459)
chain: MMTEKLNSGHTNLTSKGIINDLQIAGNTSDDMGWKSKLKLPPKDNRFKTTDVTDTRGNEFEEFCLKRELLMGIFEKGWERPSPIQEAAIPIALSGKDVLARAKNGTGKTGAYCIPVLEQIDPTKDYIQALVMVPTRELALQTSQICIELAKHLDIRVMVTTGGTILKDDILRIYQKVQLIIATPGRILDLMDKKVADMSHCRILVLDEADKLLSLDFQGMLDHVILKLPKDPQILLFSATFPLTVKNFMEKHLREPYEINLMEELTLKGVTQYYAFVQERQKVHCLNTLFSKLQINQSIIFCNSTQRVELLAKKITELGYCCYYIHAKMAQAHRNRVFHDFRQGLCRNLVCSDLFTRGIDVQAVNVVINFDFPRMAETYLHRIGRSGRFGHLGIAINLITYEDRFDLHRIEKELGTEIKPIPKVIDPALYVANVGASVGDTCNNSDLNNSANEEGNVSK
- binding [7]: binds
